Values of other authors, collected in patent US10053484B2, “Heterocycle-substituted xanthene dyes” (Biotium, Inc., priority 2009, dated 2018).
For at least one compound, name, drawing or mass did not settle the structure.

Details: known xanthene dyes, background; cited from earlier work

Compound: O=C1OC2(c3ccc(O)cc3Oc3cc(O)ccc32)c2ccccc21 [fluorescein]
- absorption maxima: 495 nm
- emission maxima: 520 nm
